The whole screen tested about 390,000 compounds, of which about 760 (0.19%) were called active. This list was built around the results that the source calls inconclusive (neither active nor inactive); the mix of calls is not that of the screen. Calls come from the whole dose curve; as a rule, active = well fitted inhibition curve with a large enough effect; inconclusive = small, poorly fitted or top-dose-only effect; inactive = flat fitted curve, though single readings scatter. Where the call is inconclusive, the potency comes from a doubtful curve fit.
Assay: qHTS for Inhibitors of Vif-A3F Interactions: qHTS; note: nearly all actives have a fitted effect of over 65% in size; for activity, negative = active: % of control where 0% means no effect
Conditions: HeLa A3F-eYFP + Vif (tagged APOBEC3F with the HIV-1 protein that degrades it), YFP fluorescence increase; series mostly up to 46.1 µM; activity, negative = active: at the top concentration
Method in brief: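 HeLa cells stably expressing A3F-eYFP plus Vif, plated and incubated overnight at 37 deg C, then exposed to compounds overnight at 37 deg C. Blocked degradation read as raised yellow fluorescence (Ex 488/Em 500-530).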
Potency is the fitted concentration of half-maximal effect.

Structure (SMILES)	Potency	activity, negative = active
CCc1ccc(C2C(C#N)=C(N)SC(N)=C2C#N)s1	active: 22.4 µM	–
CC[n+]1c(C)sc2cc(OC)ccc21	inconclusive: 25.1 µM [inhibitor, partial curve, poor fit]	–
Cc1ccc2c(c1)N(C(=O)CCC(=O)N1CCN(c3ccccn3)CC1)CCO2	–	inactive: -5.26%
COc1cccc(C2[C@H](C)C3(CCN2C)OCCO3)c1 (stereo partly drawn)	–	inactive: -1.04%
COc1ccc(Cc2nc3ccc(C(=O)N(C)Cc4nccs4)cc3o2)cc1OC	–	inactive: -10.9%
COc1cc(/C=N/N2C(=O)CSC2=S)cc(Br)c1O	inconclusive: 35.5 µM [inhibitor, single point]	–
Cc1cc2oc(=O)cc(C)c2cc1NC(=O)CCl	inconclusive: 6.31 µM [inhibitor, single point]	–
CC(NC(=O)CSc1nc(-c2ccccc2F)nc2cc(=O)[nH]n12)c1nc2ccccc2n1C (stereo not drawn)	inconclusive: 28.2 µM [inhibitor, single point]	–
COc1ccc(C(=O)NC(=S)NC2CCCCC2)cc1	inconclusive: 35.5 µM [inhibitor, single point]	–
C[C@@H]1CN([C@H](C)CO)C(=O)c2cc(NC(=O)Nc3ccc(F)cc3)ccc2O[C@H]1CN(C)C(=O)Nc1ccc(C(F)(F)F)cc1	–	inactive: -1.55%
Cc1cccc(OCC(=O)O/N=C(\N)c2ccccn2)c1C	inconclusive: 3.16 µM [inhibitor, single point]	–
CN1CCN(CC(O)COC(c2ccc(Cl)cc2)c2ccc(Cl)cc2)CC1 (stereo not drawn)	inconclusive: 25.1 µM [inhibitor, single point]	–
COCCn1c(C)cc(/C=C(\C#N)C(=O)OC(C)C(=O)Nc2ccc(NC(C)=O)cc2)c1C (stereo not drawn)	inconclusive: 14.1 µM [inhibitor, single point]	–
COC(=O)c1cc2c(N)c(C(=O)c3ccc(Cl)cc3)sc2nc1C(OC)OC	inconclusive: 35.5 µM [inhibitor, single point]	–
C=CCN1C(=O)/C(=C/C=C2/N(CC)c3ccc(S(=O)(=O)N(C)C)cc3N2CC)SC1=S	inconclusive: 17.8 µM [inhibitor, partial curve, poor fit]	–
Clc1ccc(Nc2nc3ccccc3n3nnnc23)cc1	inconclusive: 22.4 µM [inhibitor, single point]	–
Cc1cccc2c(=O)cc(CSc3ccccc3NC(=O)C(C)(C)C)[nH]c12	–	inactive: -0.993%
Nc1ccc2nc(-c3ccccc3)c(-c3ccccc3)nc2c1	inconclusive: 10 µM [inhibitor, partial curve, poor fit]	–
Cc1ccc(N=Cc2c(O)n(-c3nccs3)c(=O)c3ccccc23)c(C)c1	active: 25.1 µM	–
COc1cccc(CNCc2ccco2)c1O	inconclusive: 3.16 µM [inhibitor, single point]	–
COc1cc(NC(=O)[C@@H](NC(=O)c2ccco2)C(C)C)c(OC)cc1NC(=O)c1ccccc1	inconclusive: 1.58 µM [inhibitor, partial curve, poor fit]	–
Cc1c(C(=O)N2CCN(c3ccccc3)CC2)sc2ncnc(N3CCN(c4ccccn4)CC3)c12	–	inactive: -6.59%
Cc1ccc(OCc2ccc(C(=O)O)o2)cc1C	–	inactive: -19%

Three entries from above, in markdown:

| Structure (SMILES) | Potency | activity, negative = active |
| --- | --- | --- |
| Cc1cc2oc(=O)cc(C)c2cc1NC(=O)CCl | inconclusive: 6.31 µM [inhibitor, single point] | – |
| CC(NC(=O)CSc1nc(-c2ccccc2F)nc2cc(=O)[nH]n12)c1nc2ccccc2n1C (stereo not drawn) | inconclusive: 28.2 µM [inhibitor, single point] | – |
| COc1ccc(C(=O)NC(=S)NC2CCCCC2)cc1 | inconclusive: 35.5 µM [inhibitor, single point] | – |

More structures

Structure (SMILES)	Potency	activity, negative = active
CCOc1ccc(C(=O)Nc2ccc3nc4c(c(Nc5ccccc5OC)c3c2)CCCC4)cc1	inconclusive: 3.55 µM [inhibitor, partial curve, poor fit]	–
CCC1CCc2sc(C(=O)NC3CCN(Cc4ccccc4)CC3)cc2C1 (stereo not drawn)	–	inactive: 11.2%
Cc1ccc(N(CCO)C(=S)Nc2ccccc2)cc1	inconclusive: 35.5 µM [inhibitor, partial curve, poor fit]	–
CC(OC(=O)/C(C#N)=C/c1ccco1)C(=O)N(C)c1ccccc1 (stereo not drawn)	inconclusive: 5.62 µM [inhibitor, single point]	–
CCCOCc1cc(CN2CCN(c3ccccc3OC)CC2)c(O)c2ncccc12	inconclusive: 7.94 µM [inhibitor, partial curve, poor fit]	–
COc1ccc(C23CC4CC(CC(C4)C2)C3)cc1C(=O)NCCN(C)C	–	inactive: -14.8%
O=C(CCCn1c(=O)[nH]c2ccsc2c1=O)N1CCN(c2ccc(Cl)cc2)CC1	–	inactive: 1.16%
CCn1c(O)c(C2=c3ccccc3=NC2=O)c2cc(Br)ccc21	inconclusive: 6.31 µM [inhibitor, single point]	–
Cc1cc(C)cc(NC(=O)CN(C)S(=O)(=O)c2cnc[nH]2)c1	–	inactive: -5.16%
Cc1ccc(CNC(=O)c2cccc(Nc3nc4ccccc4n4nnnc34)c2)cc1	inconclusive: 3.16 µM [inhibitor, full curve, poor fit]	–
CC(=O)Nc1cccc(C(=O)/C=C/c2ccco2)c1	–	inactive: 7.73%
CN1C(=O)/C(=C/c2ccc(OC(=O)c3ccco3)cc2)SC1=S	inconclusive: 35.5 µM [inhibitor, partial curve, poor fit]	–
CCOc1ccc(OCCn2c(=S)[nH]c3ccccc32)cc1	–	inactive: -17.1%
O=C(NCc1ccc(Cl)cc1)C1CCN(C(=O)c2ccc(Cl)cc2)CC1	inconclusive: 3.16 µM [inhibitor, single point]	–
COCc1c(C(=O)N2CCN(Cc3nc4ccccc4s3)CC2)oc2ccccc12	–	inactive: 0.477%
Cc1ccc(CNC(=O)CN2C(=O)COc3ccccc32)cc1	–	inactive: 9.04%
CCOC(=O)CSc1nc2sc3c(c2c(=O)n1-c1ccccc1)CCN(C(C)C)C3	inconclusive: 20 µM [inhibitor, partial curve, poor fit]	–
O=C(COC(=O)c1cc([N+](=O)[O-])ccc1N1CCOCC1)Nc1ccc(Cl)cn1	inconclusive: 35.5 µM [inhibitor, single point]	–
O=C(NCCC1=CCCCC1)c1ccc(Cl)c([N+](=O)[O-])c1	inconclusive: 10 µM [inhibitor, partial curve, poor fit]	–
O=C(N/N=C/c1cccnc1)c1cccc(NC(=O)c2ccccc2Cl)c1	inconclusive: 1.58 µM [inhibitor, partial curve, poor fit]	–
Cc1scc(C(=O)NCc2ccco2)c1-c1ccccc1	inconclusive: 17.8 µM [inhibitor, single point]	–
COc1ccc(CCN2C(=O)CN(C3CCCCCC3)C(=O)C2c2ccc(C)cc2)cc1OC (stereo not drawn)	–	inactive: 2.05%
O=C(N/N=C\c1cc(Br)cs1)c1ccncc1	inconclusive: 35.5 µM [inhibitor, single point]	–

Some of the entries so far, in markdown:

| Structure (SMILES) | Potency | activity, negative = active |
| --- | --- | --- |
| Cc1scc(C(=O)NCc2ccco2)c1-c1ccccc1 | inconclusive: 17.8 µM [inhibitor, single point] | – |
| COc1ccc(CCN2C(=O)CN(C3CCCCCC3)C(=O)C2c2ccc(C)cc2)cc1OC (stereo not drawn) | – | inactive: 2.05% |

Additional results follow.

Structure (SMILES)	Potency	activity, negative = active
COC(=O)c1cc(OC)c(OC)cc1NC(=O)c1ccc2c(c1)CCN2S(=O)(=O)c1ccccc1	–	inactive: -9.25%
O=C(Nc1ncc2c(n1)CC(c1ccccc1)CC2=O)c1ccco1 (stereo not drawn)	–	inactive: -3.45%
Cc1ccc(C(=O)CSc2nc(-c3ccccc3)ccc2C#N)cc1	inconclusive: 2.51 µM [inhibitor, full curve, poor fit]	–
CC1(C)OC(=O)C(=NNc2ccccc2[N+](=O)[O-])C(=O)O1	inconclusive: 35.5 µM [inhibitor, single point]	–
Cc1cc(OCc2cc3c(cc2Cl)OCO3)c2c(C)cc(=O)oc2c1	inconclusive: 7.08 µM [inhibitor, full curve, poor fit]	–
CC(=O)c1cccc(Nc2nc(-c3ccccc3Cl)nc3ccccc23)c1	inconclusive: 28.2 µM [inhibitor, single point]	–
O=c1c2cc(Cl)ccc2[nH]c(=S)n1Cc1ccccn1	inconclusive: 5.62 µM [inhibitor, single point]	–
Fc1ccc(-c2csc(NC(=S)Nc3ccccc3)n2)cc1	inconclusive: 3.16 µM [inhibitor, partial curve, poor fit]	–
O=C(O)COc1ccc(/C=C2\SC(=Nc3ccccc3)N(c3ccccc3)C2=O)cc1	–	inactive: 1.19%
O=C(OCc1nc2ccccc2s1)c1ccc(Br)o1	inconclusive: 35.5 µM [inhibitor, single point]	–
Cc1cccc(Cc2nnc(CCC(=O)N(C)CCc3ccccc3)o2)c1	–	inactive: -6.35%
COc1ccc(Nc2nc(-c3ccccc3F)nc3ccccc23)cc1OC	inactive	–
O=C(CCNC(=O)c1ccccc1Cl)Nc1ccc(Cl)c(C(F)(F)F)c1	inconclusive: 35.5 µM [inhibitor, single point]	–
NC(=O)CC(NC(=O)Cc1ccc(Br)cc1)c1ccc(NC2CCCCCCC2)c([N+](=O)[O-])c1 (stereo not drawn)	inconclusive: 35.5 µM [inhibitor, single point]	–
COc1cc(/C=C2\C=CC(=O)O2)cc(OC)c1	inconclusive: 22.4 µM [inhibitor, single point]	–
NC(=O)CC(NC(=O)Cc1ccc(Br)cc1)c1ccc(NCc2ccc(F)c(F)c2)c([N+](=O)[O-])c1 (stereo not drawn)	inconclusive: 25.1 µM [inhibitor, single point]	–
CN(C)CCN1C(=O)C(=O)/C(=C(/O)c2ccc(S(=O)(=O)N3CCOCC3)cc2)C1c1ccc(Br)cc1 (stereo not drawn)	inconclusive: 2.24 µM [inhibitor, partial curve, poor fit]	–
O=C(OC(C(=O)Nc1ccc([N+](=O)[O-])cc1Br)c1ccccc1)c1ccccc1 (stereo not drawn)	inconclusive: 2.82 µM [inhibitor, full curve, poor fit]	–
COc1ccc(NC(=O)CCCS(=O)(=O)c2nc(-c3ccc(OC)c(OC)c3)cc(C(F)(F)F)n2)cc1OC	–	inactive: 0.951%
COc1ccc2c(c1)C(=O)N(c1ccc(C)cc1C)C(=O)C2	inconclusive: 17.8 µM [inhibitor, partial curve, poor fit]	–
Cc1cc(=O)[nH]c2ccc(S(=O)(=O)NC3CCCCC3)cc12	inconclusive: 2.82 µM [inhibitor, partial curve, poor fit]	–
Cc1ccccc1OCCC(=O)OCC(=O)N(C)c1c(N)n(Cc2ccccc2)c(=O)[nH]c1=O	inconclusive: 6.31 µM [inhibitor, single point]	–

From PubChem BioAssay AID602313 (National Center for Advancing Translational Sciences (NCATS), 2012)
